Experimental data reported in the supplement of paper PMC10331698.
± gives the standard deviation of the averaged measurements. Small differences around the control level are noise.

Key:
Experiment in all cases: level (log10 ratio to DMSO vehicle control); higher = higher biomarker level / cell amount than vehicle control
[1] = compound: CC(C)(C)C(=O)CC(=O)C(F)(F)C(F)(F)C(F)(F)F [(Heptafluorobutanoyl)pivaloylmethane]; settings: 2200 nM; in DMSO
Procedure: (§1)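 BioMAP Diversity Plus panel of 12 human primary cell co-culture systems (3C, 4H, LPS, SAg, BT, BF4T, BE3C, CASM3C, HDF3CGF, KF3CT, MyoF, Mphg). Compounds were added 1 h before stimulation and left for 24 h (MyoF 48 h; BT 72 h for soluble read-outs or 6 d for IgG). Biomarkers were read by ELISA, cytotoxicity by SRB, PBMC viability and proliferation by Alamar Blue. Each well value was divided by the mean of 8 DMSO control wells on the same plate and log10 transformed; duplicate blinded samples were tested at 4 concentrations.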

1-(Perfluorohexyl)octane = compound: CCCCCCCCC(F)(F)C(F)(F)C(F)(F)C(F)(F)C(F)(F)C(F)(F)F [1-(Perfluorohexyl)octane]; settings: in DMSO
Procedure: as §1

[2] = compound: CCN(CCO)S(=O)(=O)C(F)(F)C(F)(F)C(F)(F)C(F)(F)C(F)(F)C(F)(F)C(F)(F)C(F)(F)F [N-Ethyl-N-(2-hydroxyethyl)perfluorooctanesulfonamide]; settings: in DMSO
Procedure: as §1

[3] = compound: CN(C(=O)C(F)(F)C(F)(F)C(F)(F)F)[Si](C)(C)C [N-Methyl-N-trimethylsilylheptafluorobutyramide]; settings: 2200 nM; in DMSO
Procedure: as §1

[4] = compound: Cc1ccc(S(=O)(=O)OCC(F)(F)C(F)(F)C(F)(F)C(F)(F)C(F)(F)C(F)F)cc1 [1H,1H,7H-Perfluoroheptyl 4-methylbenzenesulfonate]; settings: 2200 nM; in DMSO
Procedure: as §1

[5] = compound: FC(F)(F)C(F)(F)C(F)(F)C(F)(F)C(F)(F)C(F)(F)CC1CO1 [3-(Perfluorohexyl)-1,2-epoxypropane]; settings: 2200 nM; in DMSO
Procedure: as §1

Heptafluorobutyramide = compound: NC(=O)C(F)(F)C(F)(F)C(F)(F)F [Heptafluorobutyramide]; settings: 2200 nM; in DMSO
Procedure: as §1

[6] = compound: NCC(F)(F)C(F)(F)C(F)(F)C(F)(F)C(F)(F)C(F)(F)C(F)(F)F [1H,1H-Perfluorooctylamine]; settings: 2200 nM; in DMSO
Procedure: as §1

Octafluoroadipic acid = compound: O=C(O)C(F)(F)C(F)(F)C(F)(F)C(F)(F)C(=O)O [Octafluoroadipic acid]; settings: 2200 nM; in DMSO
Procedure: as §1

[7] = compound: O=C(O)C(F)(F)C(F)(F)C(F)(F)C(F)(F)C(F)(F)C(F)(F)C(F)(F)C(F)(F)C(F)(F)C(F)F [11-H-Perfluoroundecanoic acid]; settings: 2200 nM; in DMSO
Procedure: as §1

Perfluoroheptanoic acid = compound: O=C(O)C(F)(F)C(F)(F)C(F)(F)C(F)(F)C(F)(F)C(F)(F)F [Perfluoroheptanoic acid]; settings: in DMSO
Procedure: as §1

Perfluoropentanoic acid = compound: O=C(O)C(F)(F)C(F)(F)C(F)(F)C(F)(F)F [Perfluoropentanoic acid]; settings: in DMSO
Procedure: as §1

[8] = compound: O=C(O)C(F)(F)C(F)(F)C(F)(F)OC(F)(F)F [Perfluoro(4-methoxybutanoic) acid]; settings: 2200 nM; in DMSO
Procedure: as §1

[9] = compound: O=S(=O)(O)CCC(F)(F)C(F)(F)C(F)(F)C(F)(F)C(F)(F)C(F)(F)C(F)(F)C(F)(F)F [8:2 Fluorotelomer sulfonic acid]; settings: in DMSO
Procedure: as §1

1H,1H-Heptafluorobutanol = compound: OCC(F)(F)C(F)(F)C(F)(F)F [1H,1H-Heptafluorobutanol]; settings: 2200 nM; in DMSO
Procedure: as §1

[10] = compound: OCCC(F)(F)C(F)(F)C(F)(F)C(F)(F)C(F)(F)C(F)(F)F [6:2 Fluorotelomer alcohol]; settings: 2200 nM; in DMSO
Procedure: as §1

Test System	level (log10) [1]	level (log10) (1-(Perfluorohexyl)octane; 740 nM)	level (log10) (1-(Perfluorohexyl)octane; 2200 nM)	level (log10) ([2]; 2200 nM)	level (log10) ([2]; 6700 nM)	level (log10) ([2]; 20000 nM)	level (log10) [3]	level (log10) [4]	level (log10) [5]	level (log10) (Heptafluorobutyramide)	level (log10) [6]	level (log10) (Octafluoroadipic acid)	level (log10) [7]	level (log10) (Perfluoroheptanoic acid; 2200 nM)	level (log10) (Perfluoroheptanoic acid; 6700 nM)	level (log10) (Perfluoroheptanoic acid; 20000 nM)	level (log10) (Perfluoroheptanoic acid; 60000 nM)	level (log10) (Perfluoropentanoic acid; 2200 nM)	level (log10) (Perfluoropentanoic acid; 6700 nM)	level (log10) (Perfluoropentanoic acid; 20000 nM)	level (log10) (Perfluoropentanoic acid; 60000 nM)	level (log10) [8]	level (log10) ([9]; 2200 nM)	level (log10) ([9]; 6700 nM)	level (log10) ([9]; 20000 nM)	level (log10) ([9]; 60000 nM)	level (log10) (1H,1H-Heptafluorobutanol)	level (log10) [10]
4H:SRB	0.003 ± 0.011	0.0325 ± 0.015	0.01 ± 0.034	-0.028 ± 0.011	-0.016 ± 0.0057	-0.0605 ± 0.029	0.0195 ± 0.022	0.0135 ± 0.036	0.0045 ± 0.0021	-0.0155 ± 0.0064	0.004 ± 0.014	-0.0195 ± 0.005	0.02 ± 0.021	-0.009 ± 0.0099	-0.0035 ± 0.005	0.0135 ± 0.026	-0.024 ± 0.021	-0.016 ± 0.0028	-0.0125 ± 0.00071	-0.0065 ± 0.016	-0.0025 ± 0.021	-0.008 ± 0.0014	-0.0125 ± 0.012	-0.012 ± 0.0014	-0.0135 ± 0.012	-0.018 ± 0.033	0.0045 ± 0.025	-0.0125 ± 0.005
4H:VEGFR2	0.0245 ± 0.03	0.047 ± 0.072	0.0095 ± 0.032	-0.0035 ± 0.005	0.0365 ± 0.0092	0.002 ± 0.0042	0.031 ± 0.0042	0.045 ± 0.072	-0.0005 ± 0.0078	0.0295 ± 0.0064	0.0355 ± 0.025	0.0185 ± 0.029	0.018 ± 0.016	0.023 ± 0.052	0.016 ± 0.027	0.022 ± 0.013	0.012 ± 0.054	0.011 ± 0.057	0.0065 ± 0.056	0.0025 ± 0.013	0.008 ± 0.025	0.024 ± 0.028	0.025 ± 0.048	-0.0345 ± 0.12	0.003 ± 0.0014	-0.026 ± 0.0028	0.037 ± 0.024	-0.008 ± 0.013
BE3C:CD54/ICAM-1	-0.0045 ± 0.029	0.011 ± 0.023	0.004 ± 0.017	0.0375 ± 0.0092	0.0705 ± 0.033	0.0555 ± 0.013	-0.02 ± 0.016	0.0085 ± 0.0092	0.0005 ± 0.033	-0.0015 ± 0.0092	0.0125 ± 0.0064	-0.0015 ± 0.018	-0.002 ± 0.028	0.0045 ± 0.032	-0.007 ± 0.0071	-0.023 ± 0.0028	-0.0055 ± 0.022	0.0085 ± 0.025	-0.006 ± 0.0085	-0.0095 ± 0.00071	0.0055 ± 0.039	-0.007 ± 0.014	-0.001 ± 0.014	0.0215 ± 0.018	0.013 ± 0.0042	-0.02 ± 0.014	0.0185 ± 0.0092	0.0215 ± 0.05
BE3C:CD87/uPAR	0.0115 ± 0.036	0.0155 ± 0.028	0.014 ± 0.0028	0.0405 ± 0.012	0.012 ± 0.016	-0.024 ± 0.028	0.023 ± 0.0099	0.0315 ± 0.0035	0.0155 ± 0.09	-0.004 ± 0.034	-0.003 ± 0.0028	0.0005 ± 0.0021	-0.006 ± 0.02	0.0185 ± 0.005	-0.0275 ± 0.026	-0.049 ± 0.033	-0.05 ± 0.054	0.018 ± 0.048	-0.0035 ± 0.063	-0.0235 ± 0.026	0.024 ± 0.0014	-0.0195 ± 0.029	0.0105 ± 0.021	0.0225 ± 0.0035	0.0135 ± 0.011	-0.01 ± 0.031	0.015 ± 0.033	0.0105 ± 0.061
BE3C:CXCL8/IL-8	0.0175 ± 0.044	0.0495 ± 0.16	0.017 ± 0.065	-0.0055 ± 0.028	-0.0825 ± 0.013	-0.218 ± 0.056	0.063 ± 0.0028	0.0135 ± 0.1	0.023 ± 0.069	0.059 ± 0.034	-0.0035 ± 0.016	0.0615 ± 0.013	0.021 ± 0.071	0.0585 ± 0.019	0.033 ± 0.041	0.008 ± 0.042	0.0205 ± 0.1	-0.008 ± 0.041	-0.023 ± 0.0042	-0.036 ± 0.017	-0.0085 ± 0.057	0.069 ± 0.057	0.0155 ± 0.015	-0.0045 ± 0.022	-0.06 ± 0.0014	-0.134 ± 0.005	0.031 ± 0.027	0.0165 ± 0.07
BE3C:CXCL9/MIG	0.003 ± 0.0057	0.005 ± 0.0028	0.0015 ± 0.0021	-0.01 ± 0.0057	-0.006 ± 0.0028	-0.0285 ± 0.0035	-0.008 ± 0.013	-0.007 ± 0.011	0.0135 ± 0.036	0.002 ± 0.021	0.0115 ± 0.0078	0.002 ± 0.014	-0.007 ± 0.018	0.02 ± 0.016	0 ± 0.0014	0.0065 ± 0.011	0.012 ± 0.017	0.006 ± 0.013	-0.0035 ± 0.0092	-0.012 ± 0.013	0.007 ± 0.018	0.01 ± 0.017	-0.0005 ± 0.0064	-0.002 ± 0.0085	-0.015 ± 0.0028	-0.03 ± 0.011	-0.003	0.0035 ± 0.018
BE3C:CXCL10/IP-10	0.0115 ± 0.06	0.0025 ± 0.018	-0.0035 ± 0.0078	-0.0175 ± 0.013	-0.051 ± 0.0028	-0.141 ± 0.028	-0.0015 ± 0.00071	-0.0055 ± 0.016	0.0095 ± 0.0078	0.002 ± 0.0099	0.002 ± 0.0071	0.0165 ± 0.00071	-0.03 ± 0.0014	0.0025 ± 0.0078	0.0055 ± 0.022	0.0065 ± 0.0092	0.0045 ± 0.011	0.0055 ± 0.022	-0.0085 ± 0.016	-0.013 ± 0.021	0.0005 ± 0.005	0.0025 ± 0.021	-0.005 ± 0.0085	-0.0205 ± 0.012	-0.122 ± 0.019	-0.237 ± 0.02	0.0335 ± 0.0078	0.01 ± 0.0099
BE3C:CXCL11/I-TAC	0.004 ± 0.044	0.014 ± 0.024	-0.008 ± 0.014	-0.0065 ± 0.028	-0.006 ± 0.023	-0.0035 ± 0.029	-0.008 ± 0.0042	-0.002 ± 0.011	-0.003 ± 0.0085	-0.01 ± 0.0042	0.0035 ± 0.0021	-0.0005 ± 0.00071	-0.0295 ± 0.015	-0.016 ± 0.014	0.0065 ± 0.015	-0.011 ± 0.0042	-0.003 ± 0.0042	0.003 ± 0.0057	-0.0175 ± 0.012	-0.015 ± 0.0028	-0.005 ± 0.014	0.0005 ± 0.0035	0.0225 ± 0.061	0.0385 ± 0.0021	0.016 ± 0.0071	-0.0915 ± 0.015	0.0135 ± 0.019	-0.004 ± 0.011
BE3C:EGFR	0.0135 ± 0.03	-0.0035 ± 0.019	-0.006 ± 0.013	-0.0105 ± 0.0064	-0.02 ± 0.0014	-0.072 ± 0.0057	-0.0125 ± 0.011	-0.008 ± 0.0099	0.0015 ± 0.029	-0.0065 ± 0.023	-0.0045 ± 0.0078	-0.001 ± 0.014	-0.0135 ± 0.00071	0.02 ± 0.027	-0.0065 ± 0.0078	0.0045 ± 0.0021	-0.0005 ± 0.033	0.001 ± 0.017	-0.0025 ± 0.021	-0.011 ± 0.0057	0.004 ± 0.018	0.011 ± 0.018	0 ± 0.0099	0.002 ± 0.0028	-0.014 ± 0.018	0.004 ± 0.0099	-0.001 ± 0.0042	0.0175 ± 0.06
BE3C:HLA-DR	0.004 ± 0.0071	0.0195 ± 0.015	0.0065 ± 0.032	-0.033 ± 0.023	-0.0445 ± 0.013	-0.115 ± 0.031	0.007 ± 0.025	-0.0095 ± 0.018	0.003 ± 0.045	0.0175 ± 0.033	0.026 ± 0.0014	0.009 ± 0.0099	-0.047 ± 0.037	0.016 ± 0.031	-0.009 ± 0.0014	-0.004 ± 0.0014	0.002 ± 0.027	0.0125 ± 0.026	-0.0095 ± 0.018	0 ± 0.011	0.016 ± 0.033	0.003 ± 0.014	-0.0045 ± 0.019	-0.0175 ± 0.037	-0.111 ± 0.005	-0.255 ± 0.0014	-0.0025 ± 0.015	0.0205 ± 0.059
